Source: the supplement of paper PMC12823440, “Inhibitors supercharge kinase turnover through native proteolytic circuits” (Nature, 2025)
The list shows a part of the results. Hit calls seldom repeat between salt and free forms of one compound.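 Kinases, fused to nanoluciferase, were expressed in K562 cells; luminescence was measured every 4 h from 2 to 18 h as percent of control (DMSO = 100%, positive control = 0%). A time point is decreased if signal falls significantly (2 sigma). Hits were called by the authors by a rule that is not shown; the count of time points alone does not decide it.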

Each compound was assayed against EGFR_L861Q (UniProt P00533) (assay: kinase-Nluc reporter destabilization hit call (1 = scored as downregulated) (binary); higher = compound decreases kinase abundance). Settings: K562; 2-18 h.

kinase-Nluc reporter destabilization hit call, inactive:
CC(C)Cn1ncc2cc(Oc3ccc(F)cc3F)c(C(=O)NCCN(C)C)cc21 [p38α inhibitor 1] (10 µM) 0
CNc1cc2c(Nc3cccc(Br)c3)ncnc2cn1 (10 µM) 0
CN1C(=O)[C@@H](NC(=O)c2cc(Cc3ccccc3)on2)COc2ccccc21 (10 µM) 0
CC(C1CC1)n1cnc2c(NCc3cccc(C(F)(F)F)c3)nc(NCCN(C)C)nc21 (stereo not drawn) (10 µM) 0
Cc1n[nH]c2ncc(C(=O)N3CCC[C@H]3c3ccc(Cl)cc3)cc12 (10 µM) 0
COc1ccc(Br)c(C=O)c1O [6-Bromo-2-hydroxy-3-methoxybenzaldehyde] (10 µM) 0
Oc1ccc(-c2cnc3ccc(NCc4ccco4)nn23)cc1 [IRAK inhibitor 2] (2.5 µM) 0
C[C@H](Nc1cc2c(-c3ccc4c(c3)OCO4)noc2cn1)c1ccccc1 (10 µM) 0
Nc1ccc(C(=O)Nc2cccc(-c3nc(N4CCOCC4)c4oc5ncccc5c4n3)c2)cn1 (10 µM) 0
CCOC(=O)c1c(N2CCc3ccc(OC)cc3C2)oc(C=C2C=Nc3ncccc32)c1O (10 µM) 0
Cc1ncc(-c2cc(F)c(O)c(F)c2)cc1-c1cc(F)c(O)c(F)c1 (10 µM) 0
N=C(NC(=N)N1CCCC1)Nc1ccc(OC(F)(F)F)cc1 (10 µM) 0
CC1(C)CN(C(=O)c2ccc(-c3cccc4nc(NC(=O)C5CC5)nn34)cc2)C1 [Solcitinib] (10 µM) 0
COc1c(O)cc(O)c2c(=O)cc(-c3ccccc3)oc12 [Wogonin] (10 µM) 0
O=C(NC[C@H](O)CO)c1ccncc1Nc1ccc(I)cc1F [Pimasertib] (10 µM) 0
N#Cc1cnc(Nc2cc(NC[C@H]3CNCCO3)c(C(F)(F)F)cn2)cn1 (10 µM) 0
CCNC(=O)Nc1ccc(-c2nc3c(c(N4CCOC[C@@H]4C)n2)CCN(C2COC2)C3)cc1 (2.5 µM) 0
COc1cc2ncnc(Nc3cc(Br)c(O)c(Br)c3)c2cc1OC (2.5 µM) 0
Nc1ccc(-c2nc3ccc(-c4nc5ccc(N)cc5[nH]4)cc3[nH]2)cc1 (10 µM) 0
CCCCC(=O)OCC(=O)[C@]1(O)Cc2c(O)c3c(c(O)c2[C@@H](O[C@H]2C[C@H](NC(=O)C(F)(F)F)[C@H](O)[C@H](C)O2)C1)C(=O)c1c(OC)cccc1C3=O [Valrubicin] (10 µM) 0
CCOC(=O)c1c(Nc2ccccc2Cl)oc(/C=C2\C=Nc3ncccc32)c1O (10 µM) 0
Nc1[nH]nc2nnc(-c3c(-c4ccccc4)nn4ccccc34)cc12 (10 µM) 0
COc1cc2nc(NC3CC3)nc(NC3CCN(C(C)C)CC3)c2cc1OC (10 µM) 0
S=C(NCc1ccc2c(c1)OCO2)N1CCN(c2ncnc3c2oc2ccccc23)CC1 [Amuvatinib] (2.5 µM) 0
CC(=O)O[C@@H]1[C@@H](OC(C)=O)[C@@H](O)[C@H](Oc2c(-c3ccc(O)cc3)oc3cc(O)cc(O)c3c2=O)O[C@H]1C (10 µM) 0
CC1=CC(=O)C(C(C)C)=C/C1=N/OC(=O)c1ccccc1C [Poloxin] (2.5 µM) 0
CO[C@@H]1[C@H](N(C)C(=O)c2ccccc2)C[C@H]2O[C@]1(C)n1c3ccccc3c3c4c(c5c6ccccc6n2c5c31)C(=O)NC4 [Midostaurin] (2.5 µM) 0
Fc1ccc(Cl)cc1-c1nc(Nc2ccncc2)c2nccnc2n1 (10 µM) 0
CN1CCC(Nc2ccc(C(=O)Nc3cc(-c4ccc5c(c4)OCO5)[nH]n3)cc2)CC1 (10 µM) 0
CN1CCC(Nc2nc(Nc3ccc(Oc4ccccc4)cc3)c3c(=O)[nH]cc(Br)c3n2)CC1 (2.5 µM) 0
O=C(COc1ccc(Cl)cc1)NC1CCC(NC(=O)COc2ccc(Cl)cc2)CC1 (stereo not drawn) [ISRIB (trans-isomer)] (10 µM) 0
Cc1ccc(C2CC(=O)NC(SCC(=O)Nc3nccs3)=C2C#N)cc1 (stereo not drawn) [Necrostatin-34] (10 µM) 0
CCCCNc1ncc(C(=O)NCc2ccc(-n3ccnc3)cc2)c(NC2CCC(O)CC2)n1 (stereo not drawn) (10 µM) 0

Two compounds drawn at random from the list so far, as already listed:
kinase-Nluc reporter destabilization hit call, inactive:
O=C(NC[C@H](O)CO)c1ccncc1Nc1ccc(I)cc1F [Pimasertib] (10 µM) 0
COc1ccc(Br)c(C=O)c1O [6-Bromo-2-hydroxy-3-methoxybenzaldehyde] (10 µM) 0
